# Counter-ions that a name gives are not always drawn. The list shows a part of the results. This data set is noisy: repeats of one test often differ as much as different tests do.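 The human kidney-derived cells carry a stably integrated construct of eight TEAD-binding elements driving luciferase, read by luminescence in a drug-repurposing library screen. A compound counts as a hit when its signal is more than five robust Z scores above the plate mean.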
# System: HEK293A TEAD-LUC reporter
# Test: TEAD-luciferase reporter activity (YAP activation), robust Z score vs plate; higher = stronger YAP/TEAD activation
# Conditions: 24 h
Compound,TEAD-luciferase reporter activity (compound concentration: 200 nM),TEAD-luciferase reporter activity (compound concentration: 10 uM),TEAD-luciferase reporter activity (compound concentration: 2 uM)
CCN(CC)CCOCC(COc1ccccc1OC)OCCN(CC)CC (stereo unspecified) [Cercainide],inactive: -1.81,inactive: -0.327,–
CCN(CC)CCOCC(COc1ccccc1OC)OCCN(CC)CC (stereo unspecified),–,–,inactive: 2.25
Clc1ccc(CCCOCCCN2CCCCC2)cc1 [pitolisant],inactive: -0.188,inactive: 1.73,inactive: 3.01
Cc1cc(N2CC=C(C(N)=O)CC2)c2cccc(-c3ccc(Cl)cc3Cl)c2n1,inactive: -1.4,inactive: -0.817,inactive: 0.967
CC(C)(C)NCC(O)COc1ccccc1-c1ccc(NN)nn1 (stereo unspecified) [prizidilol],inactive: -0.715,inactive: 1.2,inactive: 1.78
O=C(Cc1ccc(C(=O)O)cc1)NC(c1ccccc1)c1ccccc1N1CCCCC1 (stereo unspecified),inactive: -0.849,inactive: 1.71,inactive: 0.719
CN(C)c1ccc(NC(=O)N(Cc2cccc(CN(C(=O)Nc3ccc(N(C)C)cc3)C3CCCCCC3)c2)C2CCCCCC2)cc1,inactive: 2.64,inactive: 1.45,inactive: 1.24
C=C1/C(=C\C=C2/CCC[C@]3(C)[C@@H]([C@H](C)/C=C/C=C/C(O)(CC)CC)CC[C@@H]23)C[C@@H](O)C[C@@H]1O [Seocalcitol],inactive: -3.15,inactive: 1.69,inactive: -0.583
CN(c1c2c(c(O)c3ncccc13)C(=O)N(Cc1ccc(F)cc1)C2)S(C)(=O)=O,inactive: -0.609,inactive: -0.418,inactive: 0.0602
Cn1cc(-c2ccc(=O)n(Cc3cccc(-c4ncc(OCCN5CCOCC5)cn4)c3)n2)cn1,inactive: -0.266,inactive: 0.725,inactive: -0.926
COc1ccc(CN2CCCC23Cc2ccccc2CNC3=O)cc1 (stereo unspecified),inactive: -0.524,inactive: 0.302,–
O=C(CCCN1CCC(O)(c2ccc(Br)cc2)CC1)c1ccc(F)cc1 [bromperidol],inactive: -0.888,inactive: 1.25,inactive: -0.5
CCCCCCCC/C=C\CCCCCCCC(=O)Oc1ccc2c(c1)CC[C@@H]1[C@@H]2CC[C@]2(C)C(=O)CC[C@@H]12,inactive: 2.19,inactive: -0.0603,inactive: -0.739
O=P(O)(O)OCC(Cl)(Cl)Cl,inactive: -0.404,inactive: 1.2,inactive: 0.138
O=C1CN(C(=O)c2cc(-c3cc(F)cc(Cl)c3)n(-c3ccc(F)c(Cl)c3)n2)CN1,inactive: 0.269,inactive: -0.337,inactive: -0.545
Cn1cnc([N+](=O)[O-])c1Sc1nc(N)nc2nc[nH]c12,inactive: -1.72,inactive: 0.677,inactive: 0.108
N#Cc1cccc(C(C(=O)NCC(c2ccccc2)c2ccccc2)N(CCc2c[nH]cn2)C(=O)c2ccccc2C(=O)c2ccccc2)c1 (stereo unspecified),inactive: -1.51,inactive: 0.201,inactive: -0.121
CS(=O)(=O)Nc1ccc(Oc2ccc(F)cc2)s1,inactive: -2.82,inactive: -1.16,inactive: 0.596
Cc1cn([C@@H]2C[C@@H](O)[C@H](CO)O2)c(=O)[nH]c1=O [Telbivudine],inactive: -1.21,inactive: 0.306,inactive: 1.18

Compound,TEAD-luciferase reporter activity (compound concentration: 200 nM),TEAD-luciferase reporter activity (compound concentration: 10 uM),TEAD-luciferase reporter activity (compound concentration: 2 uM)
CC(C(O)c1ccc(O)cc1)N1CCC(Cc2ccccc2)CC1 (stereo unspecified) [Pharmaprojects No. 902],–,–,inactive: -1.43
CC(C(O)c1ccc(O)cc1)N1CCC(Cc2ccccc2)CC1 (stereo unspecified) [Ifenprodil],inactive: -1.2,inactive: 0.46,–
C[C@H](C(=O)NS(C)(=O)=O)c1ccc(OS(=O)(=O)C(F)(F)F)cc1 [Ladarixin sodium],–,–,inactive: 0.752
C[C@H](C(=O)NS(C)(=O)=O)c1ccc(OS(=O)(=O)C(F)(F)F)cc1,inactive: -1.02,inactive: 0.935,inactive: -1.77
CC(C)=CCC/C(C)=C/CC/C(C)=C/CC/C=C(\C)CC/C=C(\C)CCC=C(C)C [Squalene],inactive: 1.08,inactive: 1.04,inactive: -0.146
CC(=O)NC[C@@H]1CC(c2ccc(C3=CCN(C(=O)CO)CC3)cc2)=NO1,inactive: -1.85,inactive: 0.29,inactive: 2.37
CC[C@@H]1[C@H](F)C(=O)N[C@@H]1COc1nccc2cc(C(N)=O)c(OC)cc12,inactive: 1.87,inactive: 3.15,inactive: 0.998
C=CC(=O)N1CCC(C2CCNc3c(C(N)=O)c(-c4ccc(Oc5ccccc5)cc4)nn32)CC1 (stereo unspecified) [(¡À)-Zanubrutinib],inactive: -0.54,inactive: 0.292,inactive: -0.497
COc1ccc([C@@H]2c3occc3C(=O)[C@H]3COC(=O)[C@@H]23)cc1OC,inactive: -1.77,inactive: 3.06,–
CCC(C/C=C/c1ccccc1)(c1ccc(Cl)cc1)N(C)C (stereo unspecified),inactive: -0.853,inactive: 2.17,inactive: -0.711
CCc1ccc(CSc2ccc(NS(=O)(=O)c3ccc(C)c(C(=O)OC)c3)cc2)cc1,inactive: -0.594,inactive: -2.32,inactive: -0.419
N#CC(=CC=Cc1ccc(O)c(O)c1)C(=O)NCc1ccccc1,inactive: 1.06,inactive: -0.00848,inactive: -1.29
CN1C(=O)C(F)=C[C@]2(C)[C@H]3CC[C@]4(C)[C@@H](C(=O)NCc5nc6cccnc6[nH]5)CC[C@H]4[C@@H]3CC[C@@H]12,inactive: 0.337,inactive: 0.0482,inactive: -0.29
COc1cc(CN2CCCCC23Cc2ccccc2CNC3=O)ccc1F (stereo unspecified),inactive: -0.619,inactive: 2.8,–
Cc1ccc2c(c1)C(COC(=O)N[C@@H](CC(C)C)C(=O)O)c1cc(C)ccc1-2,inactive: 0.614,inactive: -0.745,inactive: -1.98
O=C(CN1CCC(C(=O)c2ccc(F)cc2)CC1)c1ccc2ccccc2c1,inactive: 0.626,inactive: -1.32,inactive: -0.633
O=C(c1ccc2c(c1)OCO2)N1CCC(N2CCCOC2=O)CC1,inactive: -1.62,inactive: 2.73,–
O=C1NCc2ccccc2CC12CCCN2Cc1c(F)cccc1F (stereo unspecified),inactive: -0.186,inactive: 1.3,–
O=C([O-])C(=O)[O-],inactive: 0.81,inactive: -0.11,inactive: -0.707

Compound,TEAD-luciferase reporter activity (compound concentration: 200 nM),TEAD-luciferase reporter activity (compound concentration: 10 uM),TEAD-luciferase reporter activity (compound concentration: 2 uM)
CC(C)=CCOc1ccc(/C=C/C(=O)c2ccc(OCC=C(C)C)cc2OCC(=O)O)cc1 [sofalcone],inactive: -0.155,inactive: 4.22,inactive: -0.862
CCOC(=O)Cc1cc(Cl)c(Oc2ccc(C(=O)NC(C)(C)C)cc2NS(=O)(=O)c2ccc(OC)cc2)cc1F,inactive: -0.968,inactive: -0.033,inactive: -0.0863
COc1ccc2c(O[C@@H]3C[C@H]4C(=O)N[C@]5(C(=O)O)C[C@H]5/C=C\CCCCC[C@H](NC(=O)OC5CCCC5)C(=O)N4C3)cc(-c3csc(NC(C)C)n3)nc2c1,inactive: -1.13,inactive: 2.44,inactive: -1.18
COC(=O)C1=C(C)NC(COC(N)=O)=C(C(=O)OC(C)C)C1c1cccc(Cl)c1Cl (stereo unspecified) [Lemildipine],inactive: 0.383,inactive: 0.0185,inactive: -1.41
CC1(C)OC(=O)Nc2ccc(Br)cc21,inactive: -0.307,inactive: -1.89,inactive: -2.27
Cc1cc(C(C)(C)CC(C)(C)C)ccc1OCCOCC[N+](C)(C)Cc1ccccc1 [Methylbenzethonium chloride],inactive: -0.181,inactive: -0.265,–
Cc1cc(C(C)(C)CC(C)(C)C)ccc1OCCOCC[N+](C)(C)Cc1ccccc1,–,–,inactive: -1
O=C(/C=C/c1c(C(=O)O)[nH]c2cc(Cl)cc(Cl)c12)Nc1ccccc1 [Gavestinel sodium],inactive: -2.16,inactive: -0.451,inactive: -0.514
C[C@]12CCC(=O)C=C1CC[C@@H]1[C@@H]2C(=O)C[C@@]2(C)[C@H]1CC[C@]2(O)C(=O)CO [Cortisone],–,–,inactive: 0.277
C[C@]12CCC(=O)C=C1CC[C@@H]1[C@@H]2C(=O)C[C@@]2(C)[C@H]1CC[C@]2(O)C(=O)CO,inactive: -0.253,inactive: 0.965,–
O=C1CCC(c2ccccc2)(C2CCN(Cc3ccccc3)CC2)C(=O)N1 (stereo unspecified),–,–,inactive: -0.986
O=C1CCC(c2ccccc2)(C2CCN(Cc3ccccc3)CC2)C(=O)N1 (stereo unspecified) [Dexetimide],inactive: -1,inactive: 0.118,–
COc1ccc(N2C[C@H](CN3CCC(O)(c4ccc5c(c4)OCO5)CC3)OC2=O)cc1 [Panamesine hydrochloride],inactive: -1.1,inactive: 0.529,inactive: 0.781
N=C(N)Nc1ccc(C(=O)Oc2ccc(SCCN3C(=O)CCC3=O)cc2)cc1 [Patamostat mesylate],inactive: -2.29,inactive: 2.13,inactive: -0.215
Cc1cc(SCCN2CCCCC2)nc2ccccc12,inactive: 0.822,inactive: 1.93,inactive: -0.16
CCC(C)CCCCC(=O)NC(CCN)C(=O)NC(C(=O)NC(CCN)C(=O)NC1CCNC(=O)C(C(C)O)NC(=O)C(CCN)NC(=O)C(CCN)NC(=O)C(CC(C)C)NC(=O)C(Cc2ccccc2)NC(=O)C(CCN)NC1=O)C(C)O (stereo unspecified),inactive: -0.59,inactive: 2.31,inactive: -1.57
Cc1cc[nH]n1,inactive: -0.0627,inactive: -0.931,inactive: -1.42
CCNC(=O)Nc1ncnc2c1ncn2[C@@H]1O[C@H](COP(=O)(O)O)[C@H]2O[C@H](/C=C/c3ccccc3)O[C@H]21 [Regrelor disodium],inactive: 4.28,inactive: 0.738,inactive: -0.396

# Looked up one by one from above (3):
Compound,TEAD-luciferase reporter activity (compound concentration: 200 nM),TEAD-luciferase reporter activity (compound concentration: 10 uM),TEAD-luciferase reporter activity (compound concentration: 2 uM)
COC(=O)C1=C(C)NC(COC(N)=O)=C(C(=O)OC(C)C)C1c1cccc(Cl)c1Cl (stereo unspecified) [Lemildipine],inactive: 0.383,inactive: 0.0185,inactive: -1.41
Cc1cc(C(C)(C)CC(C)(C)C)ccc1OCCOCC[N+](C)(C)Cc1ccccc1 [Methylbenzethonium chloride],inactive: -0.181,inactive: -0.265,–
CC1(C)OC(=O)Nc2ccc(Br)cc21,inactive: -0.307,inactive: -1.89,inactive: -2.27
